Experimental data taken from PubChem BioAssay AID1469 (National Center for Advancing Translational Sciences (NCATS), 2008).
“And” between values parts separate entries of the source, which are not always exact repeats. Identical values can stand only once. Screen size: about 280,000 compounds; about 180 (0.064%) were called active. The inconclusive results got no clear call from the source; some entries with a clear call stand among them for comparison. Calls come from the whole dose curve; as a rule, active = well fitted inhibition curve with a large enough effect; inconclusive = small, poorly fitted or top-dose-only effect, or effect the other way; inactive = flat fitted curve, though single readings scatter. Potencies beside an inconclusive call are fits to weak or partial responses and may not hold up. A structure can be active in one record and inactive in another. Positions of bridges follow the written chain, without caps; N, C: chain ends. Non-standard residues stand in square brackets, D forms with d. Residues, ends and D or L forms follow the SMILES beside them. ξ: configuration not given here. *: point of attachment. ξDab(CH2SO3H) = NC(CCNCS(=O)(=O)O)C(=O)O; Heptanoyl(6-Me) = CC(C)CCCCC(=O)*; Dab = NCC[CH](N)C(=O)O

By UniProt entry, the sequences of proteins in these tests, tags left out. Where a name states a change or a piece, a line headed by the entry shows the natural chain unless it says otherwise.
UniProt P10828: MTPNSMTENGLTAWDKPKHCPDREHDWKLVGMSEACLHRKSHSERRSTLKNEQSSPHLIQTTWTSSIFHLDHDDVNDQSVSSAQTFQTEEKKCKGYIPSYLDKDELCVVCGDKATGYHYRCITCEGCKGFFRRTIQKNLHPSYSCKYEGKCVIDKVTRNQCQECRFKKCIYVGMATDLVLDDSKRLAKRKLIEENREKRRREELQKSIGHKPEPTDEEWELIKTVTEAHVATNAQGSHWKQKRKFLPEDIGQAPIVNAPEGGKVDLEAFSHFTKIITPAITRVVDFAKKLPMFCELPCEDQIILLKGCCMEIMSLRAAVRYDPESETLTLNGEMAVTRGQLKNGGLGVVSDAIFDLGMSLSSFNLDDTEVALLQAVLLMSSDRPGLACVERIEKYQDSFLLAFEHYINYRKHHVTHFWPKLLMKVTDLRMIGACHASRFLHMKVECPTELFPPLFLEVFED

What follows are molecules tested against Thyroid hormone receptor beta (Homo sapiens) (UniProt P10828) (assay: qHTS for Inhibitors of the Interaction of Thyroid Hormone Receptor and Steroid Receptor Coregulator 2). Conditions: TRbeta-SRC2 peptide binding, fluorescence polarization, receptor liganded with 1 µM T3; series mostly up to 106 µM.
Outline: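 Human TRb LBD (0.6 uM) plus Texas Red-labeled SRC2 peptide (20 nM), 1uM T3, 5% DMSO, 5 hr at ambient temperature. Decreased polarization (555/632 nm) flags inhibition; data normalized to free and bound peptide controls.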
Note: nearly all actives have a fitted effect of over 50% in size.
Potency is the fitted concentration of half-maximal effect.
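Throughout, for activity change, negative = inhibition: plate controls were bound peptide for no effect and peptide without receptor for full effect.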

SMILES	Potency	activity change, negative = inhibition
COc1ccc(N)c2c1C(=O)c1ccccc1C2=O	active: 31.6 µM	
O=C(Nc1nc(-c2ccccc2)cs1)c1ccccc1NS(=O)(=O)c1ccc(F)cc1	inconclusive: 50.1 µM [activator, partial curve]	
Cc1cccn2c(=O)c(C(=O)NCCCN3CCCCC3C)c(O)nc12 (configuration not stated)	inactive	
O=C(O)c1cc(O)c2ccccc2c1O	inconclusive: 100 µM [inhibitor, partial curve]	
Cc1cc(C)c(S(=O)(=O)/N=C2/C=C(SCC(=O)O)C(=O)c3ccccc32)cc1C	inconclusive: 35.5 µM [inhibitor, partial curve]	
Cc1cc2c(c(=O)o1)[C@H](O)[C@H]1O[C@@H]1C2=O		inactive: 0.388% [at 11.2 µM]
COc1ccc(NCC(=O)N/N=C/c2c(C)nn(Cc3ccccc3)c2Cl)cc1	inconclusive: 50.1 µM [inhibitor, partial curve, poor fit]	
O=C(O)CCCCCN1C(=O)/C(=C/c2ccncc2)SC1=S	inconclusive: 79.4 µM [inhibitor, single point]	
CC(=O)N1CCN(c2ccc(NCc3ccc4c(c3)OCO4)cc2)CC1	active: 39.8 µM	
O=C(CCCSc1ccccc1)Nc1nc(-c2ccco2)c(-c2ccco2)s1	inactive	
CCOc1cccc2sc(N3CCN(C(=O)C4CC4)CC3)nc12	inactive	
CC(C)=CCc1c(O)ccc2c1OC(c1ccc(O)c(O)c1)CC2=O (configuration not stated)	inactive	
O=C(COc1ccc2ccccc2c1)NNC(=O)c1ccc([N+](=O)[O-])cc1	inconclusive: 56.2 µM [activator, partial curve, poor fit]	
COc1cc(/C=C(\C#N)C(=O)NCC2CCCO2)ccc1OCCC(C)C (configuration not stated)	inconclusive: 11.2 µM [inhibitor, full curve]	
Clc1cccc2c1Sc1ccccc1CC2N1CCNCC1 (configuration not stated)	inconclusive: 35.5 µM [inhibitor, single point]	
CCOC(=O)C1=C(C)NC(SCc2cc(=O)[nH][nH]2)=C(C#N)C1c1cccs1 (configuration not stated)	inconclusive: 70.8 µM [inhibitor, single point]	
CCC(C)C1NC(=O)C(CCNCS(=O)(=O)O)NC(=O)C(NC(=O)C(CCNCS(=O)(=O)O)NC(=O)C(NC(=O)C(CCNCS(=O)(=O)O)NC(=O)CCCCC(C)C)C(C)O)CCNC(=O)C(C(C)O)NC(=O)C(CCNCS(=O)(=O)O)NC(=O)C(CCNCS(=O)(=O)O)NC(=O)C(C(C)CC)NC1=O (configuration not stated) ({Heptanoyl(6-Me)}-[ξDab(CH2SO3H)]T[ξDab(CH2SO3H)][Dab][ξDab(CH2SO3H)]II[ξDab(CH2SO3H)][ξDab(CH2SO3H)]T; lactam 4-C; configuration not given here)	inconclusive: 35.5 µM [inhibitor, partial curve]	
Cc1ccc(C(=O)c2c(C)oc3c2C(=O)C(=O)c2ccccc2-3)cc1	inconclusive: 5.01 µM [inhibitor, full curve]	
COc1cccc2c1C(=O)c1c(O)c3c(c(O)c1C2=O)C[C@@](O)(C(C)=O)C[C@@H]3O[C@H]1C[C@H](N)[C@H](O)[C@H](C)O1	active: 11.2 µM and active: 35.5 µM and active: 22.4 µM	

SMILES	Potency	activity change, negative = inhibition
CC(C)OCCCn1c(=O)c2ccccc2n2c(-c3cc(Cl)ccc3O)nnc12	inactive	
COc1cc(OC)c([N+](=O)[O-])cc1/C=N/NC(=O)c1ccncc1	inconclusive: 35.5 µM [inhibitor, full curve, poor fit]	
CN(Cc1nc(-c2ccncc2)no1)S(=O)(=O)c1ccccc1	inconclusive: 79.4 µM [inhibitor, partial curve, poor fit]	
CN1c2ccccc2C(C)(C)C12C=Nc1c(ccc3ccccc13)O2 (configuration not stated)	inconclusive: 31.6 µM [inhibitor, full curve]	
CCOC(=O)CN1C(=O)C(=O)c2cccc(C)c21	inactive	
O=C(NCC(c1cccnc1)N1CCc2ccccc2C1)C(=O)Nc1ccc(F)cc1F (configuration not stated)	inconclusive: 0.316 µM [inhibitor, full curve, poor fit]	
Cc1nn(-c2ccccc2)c(C)c1/C=N/Nc1nc2ccccc2[nH]1	inconclusive: 35.5 µM [activator, partial curve, poor fit]	
O=[N+]([O-])c1c(Nc2ccc(O)cc2)cc(N2CCOCC2)c2nonc12	inconclusive: 10 µM [activator, partial curve, poor fit]	
Cc1ccc(/C=N/n2c(=O)c(C(C)(C)C)nn3cnnc23)cc1	inconclusive: 0.316 µM [inhibitor, full curve, poor fit]	
CN(C(=O)c1nc(-c2cccc(F)c2)n2c1CCCCC2)c1ccccc1F	inactive	
COc1cccc(NC(=O)CSc2nc3ccc(NC(=O)c4ccco4)cc3s2)c1	inconclusive: 50.1 µM [activator, partial curve, poor fit]	
Cc1ccc(S(=O)(=O)Oc2ccc(N=Nc3ccc(-c4ccc(N=Nc5c(O)ccc6cc(S(=O)(=O)O)cc(S(=O)(=O)O)c56)c(C)c4)cc3C)cc2)cc1	inconclusive: 39.8 µM [activator, partial curve]	
CC1=NN(c2ccccc2)C(=O)C1C=Nc1ccc(N(C)C)cc1 (configuration not stated)	inconclusive: 44.7 µM [inhibitor, partial curve]	
Cc1cc(O)c(C=O)c2c1C(=O)Oc1c(CO)c(O)c3c(c1O2)C(O)OC3=O (configuration not stated)	inconclusive: 39.8 µM [activator, partial curve]	
OCCN(CCO)c1nc(N2CCCCC2)c2nc(N(CCO)CCO)nc(N3CCCCC3)c2n1	inconclusive: 28.2 µM [activator, full curve]	
C[C@H](NC(=O)c1ccccc1Cl)C(=O)OCC(=O)N1CC2(C)CC1CC(C)(C)C2 (some centres not stated)	inconclusive: 4.47 µM [inhibitor, full curve, poor fit]	
CC1(C)c2ccccc2N2CCC(=O)NC21/C=C/c1ccco1 (configuration not stated)	inconclusive: 44.7 µM [inhibitor, partial curve]	
Cc1ccc(/C=C/C(=O)c2ccc(N3CCOCC3)cc2)s1	inactive	
